Test results as given in patent US20230349919A1.
These are yes or no findings as the source states them, for the method shown.

The chains behind the UniProt entries cited, without tags or fusion partners. Where a name states a change or a piece, a line headed by the entry shows the natural chain unless it says otherwise.
UniProt P30438: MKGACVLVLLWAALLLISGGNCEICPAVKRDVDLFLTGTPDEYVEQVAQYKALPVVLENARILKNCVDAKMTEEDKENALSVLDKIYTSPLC
UniProt P30440: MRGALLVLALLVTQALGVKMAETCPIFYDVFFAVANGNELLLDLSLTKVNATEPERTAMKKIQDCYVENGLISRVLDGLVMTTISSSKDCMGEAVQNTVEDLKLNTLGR

What was measured:
[1] = target: T1, Fel d1 (cat) (UniProt P30438+P30440); test: ELISA
[2] = target: T1, Fel d1 (cat); test: Fel d1 ELISA, single condition against blank

- binding [1]: no binding
B1: IgE mAb 12_2 (antibody, V domains shown)
VH: QAYLQQSGAELVRPGASVKMSCKASGYTFISYNMHWVKQTRRQGLEWIGAIYPGNGDTSYNQKFKGKATLTVDKSSSTAYMQLSSLTSEDSAVYFCARWDYYGSSYGAYWGQGTLVTVSA
VL: DIQMTQSPASLSVSVGETVTITCRASENIYSNLAWYQQKQGKSPQLLVYAATNLADGVPSRFSGSGSGTQYSLKINSLQSEDFGSYYCQHFWGTPWTFGGGTKLEIK
- binding [2]: no binding (tested: not shown on the sheet)
